Experimental data taken from patent publication US20260275319A1, “ARCHAEAL PEPTIDE RECOMBINASE – A NOVEL PEPTIDE LIGATING ENZYME” (MAX-PLANCK-GESELLSCHAFT ZUR FÖRDERUNG DER WISSENSCHAFTEN …, priority 2019, published 2026).
These are yes or no findings as the source states them, for the method shown. Binding seen in cells or lysates may run through a third protein. Some results given as binding are weak or reduced against the parent protein; the word gives no strength. Where a sequence is shown, tags or fusion partners need not be part of it. One block for each binder: values may come before it.

Key:
[1] = molecular target: T1, methyltransferase A (MtrA) of M. mazei, endogenous protein of the whole cell extract (Methanosarcina mazei) (UniProt O59640); experiment: pulldown from M. mazei whole cell extract, LC-MS/MS (Experiment 2.2)
T1 sequence: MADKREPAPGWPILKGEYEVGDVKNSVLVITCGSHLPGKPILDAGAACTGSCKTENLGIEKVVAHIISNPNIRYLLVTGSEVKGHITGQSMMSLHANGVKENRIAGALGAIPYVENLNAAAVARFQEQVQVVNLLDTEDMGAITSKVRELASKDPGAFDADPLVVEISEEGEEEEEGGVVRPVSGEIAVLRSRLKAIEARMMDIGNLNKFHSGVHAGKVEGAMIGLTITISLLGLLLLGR

[2] = molecular target: T2, M. mazei MtrA^Δ219-240 with N-terminal Strep-tag (Methanosarcina mazei) (UniProt O59640); experiment: LC-MS of the mixture, deconvoluted masses; MtrA^N-Adriase is the covalent conjugate, MtrA-Adriase the non-covalent complex
T2 sequence: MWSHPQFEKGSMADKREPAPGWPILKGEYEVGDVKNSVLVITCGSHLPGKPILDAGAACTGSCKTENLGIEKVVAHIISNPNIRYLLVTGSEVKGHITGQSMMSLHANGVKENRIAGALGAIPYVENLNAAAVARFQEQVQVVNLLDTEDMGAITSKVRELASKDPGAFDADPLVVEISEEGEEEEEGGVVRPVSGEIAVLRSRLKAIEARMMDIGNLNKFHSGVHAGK

[3] = molecular target: T2, M. mazei MtrA^Δ219-240 with N-terminal Strep-tag (Methanosarcina mazei); experiment: pulldown on Ni-NTA beads with His6-tagged Adriase, SDS-PAGE of flow-through (FT), washes (W1-W4) and eluate (Elu)
[4] = molecular target: T2, M. mazei MtrA^Δ219-240 with N-terminal Strep-tag (Methanosarcina mazei); experiment: isotopic dimethyl labelling and LC-MS/MS of excised gel bands
[5] = molecular target: T2, M. mazei MtrA^Δ219-240 with N-terminal Strep-tag (Methanosarcina mazei); experiment: Ni-NTA bead pulldown, SDS-PAGE; LC-MS of the reaction
[6] = molecular target: T2, M. mazei MtrA^Δ219-240 with N-terminal Strep-tag (Methanosarcina mazei); experiment: LC-MS of Adriase incubated with MtrA over night at 4° C.
[7] = molecular target: T2, M. mazei MtrA^Δ219-240 with N-terminal Strep-tag (Methanosarcina mazei); experiment: Ni-NTA bead pulldown with purified proteins, SDS-PAGE
[8] = molecular target: T1, methyltransferase A (MtrA) of M. mazei, endogenous protein of the whole cell extract (Methanosarcina mazei); experiment: pulldown from M. mazei whole cell extract, LC-MS/MS (Experiment 2.1)
[9] = molecular target: T1, methyltransferase A (MtrA) of M. mazei, endogenous protein of the whole cell extract (Methanosarcina mazei); experiment: pulldown from M. mazei whole cell extract, LC-MS/MS (Experiment 2.3)

binding [1]: binds
B1: M. mazei Adriase with C-terminal Myc-tag (enzyme)
chain: TLVIAFIGKNGAVMAGDMREITFEGEKPDREKLEKELYSGSIVTDEEMQKKAEEFGVKITVADCKEKVSERNGVLVGEVSSAEGGVVKKRRLYASAGNFAIAELINTEMTLTSQGKGSNFIAFGNEFTKQVANKCFKDNWTKKSNLQDAVKILILCMETVARKTASVSKQFMIVQTASNADVLKVVEKDRNCGSEQKLISEEDL

binding [8]: binds
B3: M. mazei Adriase with C-terminal Strep-tag (enzyme)
chain: TLVIAFIGKNGAVMAGDMREITFEGEKPDREKLEKELYSGSIVTDEEMQKKAEEFGVKITVADCKEKVSERNGVLVGEVSSAEGGVVKKRRLYASAGNFAIAELINTEMTLTSQGKGSNFIAFGNEFTKQVANKCFKDNWTKKSNLQDAVKILILCMETVARKTASVSKQFMIVQTASNADVLKVVEKDRNCGSWSHPQFEK

The remaining lines, values behind:

B2: M. mazei Adriase with C-terminal His-tag (enzyme)
chain: TLVIAFIGKNGAVMAGDMREITFEGEKPDREKLEKELYSGSIVTDEEMQKKAEEFGVKITVADCKEKVSERNGVLVGEVSSAEGGVVKKRRLYASAGNFAIAELINTEMTLTSQGKGSNFIAFGNEFTKQVANKCFKDNWTKKSNLQDAVKILILCMETVARKTASVSKQFMIVQTASNADVLKVVEKDRNCGSHHHHHH
binding [2]: binds | binding [3]: binds | binding [4]: binds | binding [5]: binds | binding [6]: binds | binding [7]: binds

B4: M. mazei Adriase with C-terminal HA-tag (enzyme)
chain: TLVIAFIGKNGAVMAGDMREITFEGEKPDREKLEKELYSGSIVTDEEMQKKAEEFGVKITVADCKEKVSERNGVLVGEVSSAEGGVVKKRRLYASAGNFAIAELINTEMTLTSQGKGSNFIAFGNEFTKQVANKCFKDNWTKKSNLQDAVKILILCMETVARKTASVSKQFMIVQTASNADVLKVVEKDRNCGSYPYDVPDYA
binding [9]: binds
